In the assay the target is T1, TRIM54 (endogenous) (human (endogenous in Hep3B)) (UniProt Q9BYV2).
T1 sequence: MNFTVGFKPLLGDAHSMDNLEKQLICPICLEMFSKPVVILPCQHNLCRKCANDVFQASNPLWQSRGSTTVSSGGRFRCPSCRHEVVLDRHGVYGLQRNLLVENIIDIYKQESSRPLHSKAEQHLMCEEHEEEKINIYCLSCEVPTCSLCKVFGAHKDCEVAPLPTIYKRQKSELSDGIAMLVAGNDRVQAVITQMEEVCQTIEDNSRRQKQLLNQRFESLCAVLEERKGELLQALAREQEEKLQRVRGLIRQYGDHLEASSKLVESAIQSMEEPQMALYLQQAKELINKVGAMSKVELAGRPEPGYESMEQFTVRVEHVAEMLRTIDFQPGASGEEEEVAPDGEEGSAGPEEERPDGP
Kind of assay: co-IP; endogenous TRIM54 and endogenous Axin1 in Hep3B cells; which protein was precipitated is not told.

Amino acid sequences for entries named in this document (tags omitted).
UniProt O15169: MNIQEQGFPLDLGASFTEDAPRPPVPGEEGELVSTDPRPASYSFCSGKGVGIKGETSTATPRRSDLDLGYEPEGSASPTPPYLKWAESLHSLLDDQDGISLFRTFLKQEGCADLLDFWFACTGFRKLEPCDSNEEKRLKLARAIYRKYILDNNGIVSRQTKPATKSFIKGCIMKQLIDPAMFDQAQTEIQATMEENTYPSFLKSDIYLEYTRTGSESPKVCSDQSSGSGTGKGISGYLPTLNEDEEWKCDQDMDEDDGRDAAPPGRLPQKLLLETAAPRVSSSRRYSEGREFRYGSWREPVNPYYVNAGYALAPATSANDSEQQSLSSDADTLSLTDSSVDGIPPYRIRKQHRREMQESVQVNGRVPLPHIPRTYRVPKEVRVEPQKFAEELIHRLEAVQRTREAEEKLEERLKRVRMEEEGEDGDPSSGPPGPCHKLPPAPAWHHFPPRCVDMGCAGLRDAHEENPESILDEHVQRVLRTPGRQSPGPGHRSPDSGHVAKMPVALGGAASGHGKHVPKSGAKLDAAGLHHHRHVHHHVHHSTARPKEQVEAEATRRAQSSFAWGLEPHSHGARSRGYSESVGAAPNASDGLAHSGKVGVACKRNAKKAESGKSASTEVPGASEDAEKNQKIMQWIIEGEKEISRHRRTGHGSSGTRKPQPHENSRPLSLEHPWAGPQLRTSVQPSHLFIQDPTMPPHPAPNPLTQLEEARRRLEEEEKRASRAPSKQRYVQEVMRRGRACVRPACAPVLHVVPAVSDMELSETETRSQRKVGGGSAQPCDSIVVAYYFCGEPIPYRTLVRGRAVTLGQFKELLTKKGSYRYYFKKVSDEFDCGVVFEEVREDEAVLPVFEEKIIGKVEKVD

This passage reports binding results from publication PMC8695909.

No constants are given. Whether binding was seen depends on the method and setting. Binding seen in cells or lysates may run through a third protein. Some entries that bind do so weakly or less than the wild type.

Turning to “Axis inhibition protein 1 (Axin1) (from UniProt O15169 1-862)”, the binding result was “binds”.
